Source: the supplement of paper PMC6411743
± gives the standard deviation of the averaged measurements. The entries are a selection whose mix differs from that of the whole data set.

By UniProt entry, the sequences of proteins in these tests, tags left out. Where a name states a change or a piece, a line headed by the entry shows the natural chain unless it says otherwise.
UniProt Q9BW92: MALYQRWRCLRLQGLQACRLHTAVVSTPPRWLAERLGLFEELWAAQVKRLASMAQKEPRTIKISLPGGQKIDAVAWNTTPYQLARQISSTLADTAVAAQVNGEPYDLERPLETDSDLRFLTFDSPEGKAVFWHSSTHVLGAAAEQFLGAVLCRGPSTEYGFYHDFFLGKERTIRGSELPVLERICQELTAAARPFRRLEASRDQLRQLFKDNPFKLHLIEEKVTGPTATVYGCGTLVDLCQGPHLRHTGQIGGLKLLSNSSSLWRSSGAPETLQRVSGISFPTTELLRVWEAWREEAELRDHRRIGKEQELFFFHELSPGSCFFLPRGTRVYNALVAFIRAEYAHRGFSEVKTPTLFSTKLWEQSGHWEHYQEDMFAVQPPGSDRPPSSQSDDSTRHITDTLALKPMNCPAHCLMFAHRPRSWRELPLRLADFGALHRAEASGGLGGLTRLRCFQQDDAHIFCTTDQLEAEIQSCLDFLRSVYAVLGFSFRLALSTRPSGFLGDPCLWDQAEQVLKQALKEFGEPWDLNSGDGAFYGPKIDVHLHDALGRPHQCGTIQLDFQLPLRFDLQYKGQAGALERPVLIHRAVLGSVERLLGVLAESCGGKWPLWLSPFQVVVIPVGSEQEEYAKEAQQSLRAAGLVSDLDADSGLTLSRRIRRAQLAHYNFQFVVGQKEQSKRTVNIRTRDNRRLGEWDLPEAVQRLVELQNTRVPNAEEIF
UniProt Q9BQT9: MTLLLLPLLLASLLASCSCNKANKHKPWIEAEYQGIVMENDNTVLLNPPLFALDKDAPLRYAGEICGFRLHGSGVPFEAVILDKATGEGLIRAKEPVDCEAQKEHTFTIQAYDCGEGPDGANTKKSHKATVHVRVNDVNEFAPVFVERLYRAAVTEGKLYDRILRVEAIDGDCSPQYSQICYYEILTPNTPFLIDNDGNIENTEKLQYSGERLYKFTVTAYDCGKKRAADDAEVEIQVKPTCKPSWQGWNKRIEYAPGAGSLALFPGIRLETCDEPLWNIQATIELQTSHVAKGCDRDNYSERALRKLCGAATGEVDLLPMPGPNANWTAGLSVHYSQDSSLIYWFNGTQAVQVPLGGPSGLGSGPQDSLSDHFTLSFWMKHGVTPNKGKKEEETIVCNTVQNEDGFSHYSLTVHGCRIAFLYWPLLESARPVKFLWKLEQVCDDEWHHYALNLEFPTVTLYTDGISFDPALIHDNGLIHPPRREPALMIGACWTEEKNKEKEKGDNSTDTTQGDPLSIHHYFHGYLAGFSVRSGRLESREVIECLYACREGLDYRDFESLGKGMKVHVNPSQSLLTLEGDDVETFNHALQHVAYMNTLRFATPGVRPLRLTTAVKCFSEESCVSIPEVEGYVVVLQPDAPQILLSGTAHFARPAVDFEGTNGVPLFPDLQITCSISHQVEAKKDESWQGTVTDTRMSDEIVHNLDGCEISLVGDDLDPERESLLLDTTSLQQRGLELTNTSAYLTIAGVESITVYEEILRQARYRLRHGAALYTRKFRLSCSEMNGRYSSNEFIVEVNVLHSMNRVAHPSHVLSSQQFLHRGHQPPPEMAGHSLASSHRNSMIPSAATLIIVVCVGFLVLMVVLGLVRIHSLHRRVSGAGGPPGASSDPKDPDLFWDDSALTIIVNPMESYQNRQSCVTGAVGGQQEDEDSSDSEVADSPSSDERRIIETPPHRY
UniProt Q9BXR0: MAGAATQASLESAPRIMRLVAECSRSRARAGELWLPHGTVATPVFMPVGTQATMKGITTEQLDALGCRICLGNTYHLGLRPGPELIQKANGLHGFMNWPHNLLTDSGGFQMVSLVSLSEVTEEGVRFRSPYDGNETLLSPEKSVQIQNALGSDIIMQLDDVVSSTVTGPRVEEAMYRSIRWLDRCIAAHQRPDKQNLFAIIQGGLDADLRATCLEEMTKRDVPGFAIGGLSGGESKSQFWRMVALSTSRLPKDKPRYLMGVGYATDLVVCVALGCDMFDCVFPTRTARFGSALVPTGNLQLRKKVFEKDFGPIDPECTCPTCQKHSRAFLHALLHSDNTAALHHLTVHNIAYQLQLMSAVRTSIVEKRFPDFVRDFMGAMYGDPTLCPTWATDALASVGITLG
UniProt Q99538: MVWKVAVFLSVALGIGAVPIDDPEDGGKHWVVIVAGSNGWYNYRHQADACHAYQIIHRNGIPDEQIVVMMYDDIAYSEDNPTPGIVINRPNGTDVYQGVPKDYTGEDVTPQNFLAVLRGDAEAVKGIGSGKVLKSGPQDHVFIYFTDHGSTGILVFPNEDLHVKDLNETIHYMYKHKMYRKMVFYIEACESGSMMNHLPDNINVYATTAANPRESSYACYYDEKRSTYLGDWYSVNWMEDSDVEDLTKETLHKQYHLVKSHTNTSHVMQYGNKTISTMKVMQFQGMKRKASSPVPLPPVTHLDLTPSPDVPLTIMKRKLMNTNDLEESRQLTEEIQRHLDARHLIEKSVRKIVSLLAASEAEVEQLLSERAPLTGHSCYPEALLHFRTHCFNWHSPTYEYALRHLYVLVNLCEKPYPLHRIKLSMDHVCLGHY
UniProt Q9BT22: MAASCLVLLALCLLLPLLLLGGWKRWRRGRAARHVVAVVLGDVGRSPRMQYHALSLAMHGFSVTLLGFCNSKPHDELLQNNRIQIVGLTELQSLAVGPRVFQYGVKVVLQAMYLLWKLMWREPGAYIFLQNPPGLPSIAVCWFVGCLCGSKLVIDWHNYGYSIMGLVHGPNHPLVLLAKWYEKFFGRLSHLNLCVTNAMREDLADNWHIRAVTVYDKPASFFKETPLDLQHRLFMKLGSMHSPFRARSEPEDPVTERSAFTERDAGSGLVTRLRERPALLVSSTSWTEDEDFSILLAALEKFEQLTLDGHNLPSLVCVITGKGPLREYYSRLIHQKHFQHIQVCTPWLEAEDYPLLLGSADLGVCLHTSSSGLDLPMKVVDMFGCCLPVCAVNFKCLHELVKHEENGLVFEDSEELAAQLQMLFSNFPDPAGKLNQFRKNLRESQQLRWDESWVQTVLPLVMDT
UniProt Q9BSJ2, whole entry: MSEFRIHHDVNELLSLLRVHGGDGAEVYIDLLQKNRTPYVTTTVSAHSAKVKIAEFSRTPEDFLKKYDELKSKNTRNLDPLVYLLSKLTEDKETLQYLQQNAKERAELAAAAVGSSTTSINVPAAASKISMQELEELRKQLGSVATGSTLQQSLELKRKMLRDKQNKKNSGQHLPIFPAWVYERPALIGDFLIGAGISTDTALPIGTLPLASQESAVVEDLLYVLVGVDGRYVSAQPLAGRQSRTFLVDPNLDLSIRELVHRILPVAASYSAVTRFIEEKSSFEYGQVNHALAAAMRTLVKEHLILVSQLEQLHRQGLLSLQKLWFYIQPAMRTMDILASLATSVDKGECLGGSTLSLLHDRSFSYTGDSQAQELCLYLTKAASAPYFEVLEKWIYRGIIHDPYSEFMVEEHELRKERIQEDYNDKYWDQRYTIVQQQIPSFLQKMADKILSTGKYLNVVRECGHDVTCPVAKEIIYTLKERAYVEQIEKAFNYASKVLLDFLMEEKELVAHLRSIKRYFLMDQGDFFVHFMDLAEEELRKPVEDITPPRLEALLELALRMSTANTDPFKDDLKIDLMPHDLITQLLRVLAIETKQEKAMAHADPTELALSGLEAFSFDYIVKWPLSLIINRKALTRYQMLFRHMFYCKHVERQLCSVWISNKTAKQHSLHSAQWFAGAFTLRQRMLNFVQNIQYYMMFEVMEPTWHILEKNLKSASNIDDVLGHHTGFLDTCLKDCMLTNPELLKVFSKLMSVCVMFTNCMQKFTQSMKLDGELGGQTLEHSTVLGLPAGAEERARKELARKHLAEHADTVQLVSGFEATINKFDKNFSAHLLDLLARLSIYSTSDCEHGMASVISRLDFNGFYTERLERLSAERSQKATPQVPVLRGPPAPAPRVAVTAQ
UniProt Q9BTT4: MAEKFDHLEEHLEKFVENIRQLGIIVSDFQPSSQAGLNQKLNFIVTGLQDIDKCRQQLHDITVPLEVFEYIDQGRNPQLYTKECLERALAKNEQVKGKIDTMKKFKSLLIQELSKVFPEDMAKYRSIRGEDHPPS
UniProt Q99856: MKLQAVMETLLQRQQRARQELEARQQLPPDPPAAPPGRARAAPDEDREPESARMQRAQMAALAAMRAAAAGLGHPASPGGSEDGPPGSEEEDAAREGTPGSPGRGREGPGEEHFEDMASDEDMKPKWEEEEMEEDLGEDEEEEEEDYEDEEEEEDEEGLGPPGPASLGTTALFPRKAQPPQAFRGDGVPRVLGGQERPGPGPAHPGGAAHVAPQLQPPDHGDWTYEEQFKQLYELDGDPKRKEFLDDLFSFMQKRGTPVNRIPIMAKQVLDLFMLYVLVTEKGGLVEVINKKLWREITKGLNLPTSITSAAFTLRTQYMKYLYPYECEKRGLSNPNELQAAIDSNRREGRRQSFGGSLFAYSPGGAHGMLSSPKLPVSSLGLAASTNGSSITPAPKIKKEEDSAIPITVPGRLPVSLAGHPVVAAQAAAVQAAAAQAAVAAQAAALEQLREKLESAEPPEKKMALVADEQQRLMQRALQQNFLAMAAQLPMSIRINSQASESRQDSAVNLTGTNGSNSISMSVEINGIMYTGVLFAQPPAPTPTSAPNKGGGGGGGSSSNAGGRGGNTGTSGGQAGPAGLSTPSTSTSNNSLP
UniProt Q9BSH5: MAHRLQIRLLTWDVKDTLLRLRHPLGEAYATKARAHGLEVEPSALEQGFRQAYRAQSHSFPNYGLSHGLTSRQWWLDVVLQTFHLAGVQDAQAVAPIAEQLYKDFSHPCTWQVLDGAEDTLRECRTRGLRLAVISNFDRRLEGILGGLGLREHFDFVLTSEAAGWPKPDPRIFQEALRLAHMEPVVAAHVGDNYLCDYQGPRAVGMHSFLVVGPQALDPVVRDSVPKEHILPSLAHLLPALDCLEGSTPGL
UniProt Q9BT73: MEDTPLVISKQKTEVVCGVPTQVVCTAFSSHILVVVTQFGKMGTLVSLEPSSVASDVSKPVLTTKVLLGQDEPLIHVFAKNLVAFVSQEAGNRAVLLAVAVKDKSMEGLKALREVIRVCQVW
UniProt Q96RS6: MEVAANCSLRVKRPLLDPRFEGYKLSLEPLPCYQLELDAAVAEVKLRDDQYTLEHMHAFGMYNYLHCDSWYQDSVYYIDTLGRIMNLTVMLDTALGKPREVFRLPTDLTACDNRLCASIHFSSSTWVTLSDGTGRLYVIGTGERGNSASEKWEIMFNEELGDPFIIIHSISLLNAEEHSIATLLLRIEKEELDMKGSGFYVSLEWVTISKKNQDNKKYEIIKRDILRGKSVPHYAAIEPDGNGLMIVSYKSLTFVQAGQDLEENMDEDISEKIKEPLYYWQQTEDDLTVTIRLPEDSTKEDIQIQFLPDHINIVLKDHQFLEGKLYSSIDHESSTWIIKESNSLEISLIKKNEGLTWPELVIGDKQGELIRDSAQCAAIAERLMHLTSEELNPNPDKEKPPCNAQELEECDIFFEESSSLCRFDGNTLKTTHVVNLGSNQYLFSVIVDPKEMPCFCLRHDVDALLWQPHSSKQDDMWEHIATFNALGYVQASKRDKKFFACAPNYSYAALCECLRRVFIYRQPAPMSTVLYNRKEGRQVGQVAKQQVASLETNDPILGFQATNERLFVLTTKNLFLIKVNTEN
UniProt Q9BYM8: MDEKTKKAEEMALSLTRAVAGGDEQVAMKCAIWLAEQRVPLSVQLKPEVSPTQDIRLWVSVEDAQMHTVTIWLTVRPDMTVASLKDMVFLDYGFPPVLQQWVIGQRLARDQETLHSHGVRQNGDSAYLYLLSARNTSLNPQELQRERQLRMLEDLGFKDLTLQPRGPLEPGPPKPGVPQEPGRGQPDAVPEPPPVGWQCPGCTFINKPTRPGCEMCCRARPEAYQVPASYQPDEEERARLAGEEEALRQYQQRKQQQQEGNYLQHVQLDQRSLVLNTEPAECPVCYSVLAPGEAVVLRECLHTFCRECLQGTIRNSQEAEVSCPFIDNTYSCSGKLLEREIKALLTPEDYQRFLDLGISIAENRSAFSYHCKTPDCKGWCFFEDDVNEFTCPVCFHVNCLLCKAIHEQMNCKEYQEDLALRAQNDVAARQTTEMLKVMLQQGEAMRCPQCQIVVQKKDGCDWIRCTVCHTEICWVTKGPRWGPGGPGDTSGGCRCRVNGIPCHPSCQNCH

Compound: Nc1ncnc2c1ncn2[C@@H]1O[C@H](COP(=O)(O)OP(=O)(O)NP(=O)(O)O)[C@@H](O)[C@H]1O [adenylyl imidodiphosphate]
Test: NP40-soluble protein abundance relative to vehicle (solubility fold change) (ratio); higher = more soluble protein in presence of AMP-PNP
Procedure, shortened: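 Data come from three independent experiments in which Dounce-homogenised Jurkat crude lysate was treated at eight concentrations from 0.1 to 10 mM. Treatment ran 10 min at room temperature and then 3 min at 37 °C, after which 0.8% NP40 and benzonase were added for 60 min at 4 °C before ultracentrifugation. The supernatant underwent TMT labelling and LC-MS/MS, and vsn-normalised intensities were expressed as fold change against the detergent-processed vehicle in each replicate.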

| Target | NP40-soluble protein abundance (concentration: 1mM) | NP40-soluble protein abundance (concentration: 2mM) | NP40-soluble protein abundance (concentration: 4mM) | NP40-soluble protein abundance (concentration: 6mM) | NP40-soluble protein abundance (concentration: 8mM) | NP40-soluble protein abundance (concentration: 10mM) |
| --- | --- | --- | --- | --- | --- | --- |
| TARS2 (UniProt Q9BW92) | 0.951 ± 0.014 | 0.878 ± 0.11 | 0.9746 ± 0.0075 | 0.934 ± 0.01 | 0.966 ± 0.032 | 0.9239 ± 0.0078 |
| TCF25 (UniProt Q9BQ70) | 1.09 ± 0.14 | 1.02 ± 0.037 | 1.03 ± 0.061 | 1.05 ± 0.059 | 1.06 ± 0.047 | 1.05 ± 0.075 |
| SORT1 (UniProt Q99523) | 0.99 ± 0.034 | 1.05 ± 0.089 | 0.995 ± 0.063 | 1.03 ± 0.055 | 1.03 ± 0.036 | 1.03 ± 0.047 |
| UniProt Q9BQT9 and related entries | 1.01 ± 0.031 | 1.04 ± 0.035 | 1.02 ± 0.042 | 0.985 ± 0.049 | 0.976 ± 0.022 | 1.01 ± 0.03 |
| PSMD1 (UniProt Q99460) | 0.902 ± 0.044 | 0.887 ± 0.06 | 0.851 ± 0.094 | 0.863 ± 0.11 | 0.848 ± 0.098 | 0.847 ± 0.13 |
| RPAP1 (UniProt Q9BWH6) | 1.02 ± 0.025 | 1.01 ± 0.039 | 1.05 ± 0.015 | 1.02 ± 0.021 | 1.019 ± 0.0088 | 0.995 ± 0.029 |
| QTRT1 (UniProt Q9BXR0) | 0.981 ± 0.019 | 0.913 ± 0.1 | 0.997 ± 0.018 | 0.953 ± 0.023 | 0.999 ± 0.02 | 0.939 ± 0.012 |
| UniProt Q96RT1 and related entries | 1.02 ± 0.022 | 1.026 ± 0.01 | 1.016 ± 0.007 | 0.988 ± 0.035 | 0.97 ± 0.011 | 0.9896 ± 0.0019 |
| UniProt Q99538 and related entries | 0.998 ± 0.025 | 1.06 ± 0.044 | 1.03 ± 0.021 | 1.04 ± 0.037 | 1.03 ± 0.039 | 1.08 ± 0.062 |
| UniProt Q9BUL5 and related entries | 1.02 ± 0.019 | 1.07 ± 0.093 | 1.01 ± 0.023 | 1.06 ± 0.023 | 1.01 ± 0.035 | 1.02 ± 0.061 |
| ALG1 (UniProt Q9BT22) | 0.962 ± 0.035 | 0.895 ± 0.049 | 0.958 ± 0.035 | 0.922 ± 0.028 | 0.952 ± 0.035 | 0.896 ± 0.029 |
| UniProt Q9BW91 and related entries | 1.01 ± 0.024 | 1.04 ± 0.066 | 1.01 ± 0.02 | 0.982 ± 0.015 | 0.974 ± 0.02 | 0.966 ± 0.051 |
| DSCC1 (UniProt Q9BVC3) | 0.994 ± 0.016 | 0.968 ± 0.035 | 0.995 ± 0.045 | 0.977 ± 0.017 | 0.974 ± 0.021 | 0.949 ± 0.025 |
| IFT140 (UniProt Q96RY7) | 0.995 ± 0.025 | 0.966 ± 0.046 | 0.971 ± 0.017 | 0.944 ± 0.034 | 0.919 ± 0.018 | 0.906 ± 0.029 |
| UniProt Q9BSJ2 and related entries | 0.993 ± 0.079 | 0.955 ± 0.083 | 1 ± 0.082 | 0.988 ± 0.14 | 0.982 ± 0.096 | 0.993 ± 0.13 |
| MED10 (UniProt Q9BTT4) | 1.01 ± 0.031 | 1.04 ± 0.037 | 0.999 ± 0.047 | 1 ± 0.038 | 0.992 ± 0.041 | 0.992 ± 0.035 |
| KIFC1 (UniProt Q9BW19) | 1.06 ± 0.03 | 1.13 ± 0.039 | 1.11 ± 0.044 | 1.1 ± 0.038 | 1.07 ± 0.032 | 1.11 ± 0.064 |
| UniProt Q99447 and related entries | 0.953 ± 0.019 | 0.896 ± 0.068 | 0.944 ± 0.012 | 0.927 ± 0.039 | 0.969 ± 0.027 | 0.888 ± 0.012 |
| ARID3A (UniProt Q99856) | 1 ± 0.049 | 1.06 ± 0.056 | 1.01 ± 0.036 | 1.02 ± 0.019 | 0.991 ± 0.015 | 1.04 ± 0.041 |
| PNKP (UniProt Q96T60) | 1.02 ± 0.041 | 1.02 ± 0.054 | 1.1 ± 0.071 | 1.18 ± 0.021 | 1.23 ± 0.047 | 1.22 ± 0.079 |
| UniProt Q9BXM9 and related entries | 0.992 ± 0.021 | 0.989 ± 0.038 | 0.998 ± 0.041 | 0.99 ± 0.017 | 0.972 ± 0.046 | 0.986 ± 0.029 |
| HDHD3 (UniProt Q9BSH5) | 0.996 ± 0.019 | 0.978 ± 0.086 | 1.04 ± 0.059 | 1 ± 0.039 | 1.01 ± 0.039 | 0.996 ± 0.066 |
| PSMG3 (UniProt Q9BT73) | 0.986 ± 0.06 | 0.98 ± 0.029 | 1.01 ± 0.05 | 1.01 ± 0.019 | 1.022 ± 0.0097 | 1.04 ± 0.023 |
| UniProt Q9BV73 and related entries | 0.9944 ± 0.0088 | 1.05 ± 0.042 | 1.02 ± 0.026 | 0.987 ± 0.017 | 0.963 ± 0.034 | 0.933 ± 0.018 |
| ADI1 (UniProt Q9BV57) | 1.01 ± 0.039 | 0.94 ± 0.011 | 0.972 ± 0.022 | 0.966 ± 0.026 | 0.989 ± 0.013 | 0.914 ± 0.051 |
| NUDCD1 (UniProt Q96RS6) | 0.964 ± 0.02 | 0.892 ± 0.085 | 0.928 ± 0.058 | 0.913 ± 0.017 | 0.935 ± 0.072 | 0.861 ± 0.035 |
| UniProt Q9BSW2-2 | 1.04 ± 0.026 | 1.08 ± 0.026 | 1.07 ± 0.014 | 1.01 ± 0.056 | 1.01 ± 0.046 | 1.03 ± 0.059 |
| NAPG (UniProt Q99747) | 1.013 ± 0.01 | 1.07 ± 0.057 | 0.9864 ± 0.0066 | 0.9833 ± 0.009 | 0.97 ± 0.029 | 0.964 ± 0.011 |
| RBCK1 (UniProt Q9BYM8) | 1.005 ± 0.0061 | 0.989 ± 0.036 | 0.974 ± 0.035 | 0.928 ± 0.013 | 0.911 ± 0.016 | 0.935 ± 0.032 |
| C1orf50 (UniProt Q9BV19) | 0.979 ± 0.015 | 0.9656 ± 0.009 | 0.979 ± 0.014 | 0.963 ± 0.036 | 0.98 ± 0.03 | 0.974 ± 0.044 |

Full records, quoted from the list. Values in the order: NP40-soluble protein abundance (concentration: 1mM) | NP40-soluble protein abundance (concentration: 2mM) | NP40-soluble protein abundance (concentration: 4mM) | NP40-soluble protein abundance (concentration: 6mM) | NP40-soluble protein abundance (concentration: 8mM) | NP40-soluble protein abundance (concentration: 10mM)
IFT140 (UniProt Q96RY7) in the list: 0.995 ± 0.025 | 0.966 ± 0.046 | 0.971 ± 0.017 | 0.944 ± 0.034 | 0.919 ± 0.018 | 0.906 ± 0.029
ADI1 (UniProt Q9BV57) in the list: 1.01 ± 0.039 | 0.94 ± 0.011 | 0.972 ± 0.022 | 0.966 ± 0.026 | 0.989 ± 0.013 | 0.914 ± 0.051
